The supplement of paper PMC12823440, “Inhibitors supercharge kinase turnover through native proteolytic circuits” (Nature, 2025)
Some of the results follow. Hit calls seldom repeat between salt and free forms of one compound.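 In K562 cells expressing nanoluciferase-fused kinases, luminescence was recorded at 4 h intervals between 2 and 18 h, normalized as percent of control with DMSO at 100% and a positive control at 0%. A significant (2 sigma) signal drop marks a time point as decreased. The authors' rule for a hit is not shown and takes in more than the number of time points.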

Amino acid sequences for entries named in this document (tags omitted). A change or cut given only in a name is not applied to a line headed by its entry.
UniProt P23458: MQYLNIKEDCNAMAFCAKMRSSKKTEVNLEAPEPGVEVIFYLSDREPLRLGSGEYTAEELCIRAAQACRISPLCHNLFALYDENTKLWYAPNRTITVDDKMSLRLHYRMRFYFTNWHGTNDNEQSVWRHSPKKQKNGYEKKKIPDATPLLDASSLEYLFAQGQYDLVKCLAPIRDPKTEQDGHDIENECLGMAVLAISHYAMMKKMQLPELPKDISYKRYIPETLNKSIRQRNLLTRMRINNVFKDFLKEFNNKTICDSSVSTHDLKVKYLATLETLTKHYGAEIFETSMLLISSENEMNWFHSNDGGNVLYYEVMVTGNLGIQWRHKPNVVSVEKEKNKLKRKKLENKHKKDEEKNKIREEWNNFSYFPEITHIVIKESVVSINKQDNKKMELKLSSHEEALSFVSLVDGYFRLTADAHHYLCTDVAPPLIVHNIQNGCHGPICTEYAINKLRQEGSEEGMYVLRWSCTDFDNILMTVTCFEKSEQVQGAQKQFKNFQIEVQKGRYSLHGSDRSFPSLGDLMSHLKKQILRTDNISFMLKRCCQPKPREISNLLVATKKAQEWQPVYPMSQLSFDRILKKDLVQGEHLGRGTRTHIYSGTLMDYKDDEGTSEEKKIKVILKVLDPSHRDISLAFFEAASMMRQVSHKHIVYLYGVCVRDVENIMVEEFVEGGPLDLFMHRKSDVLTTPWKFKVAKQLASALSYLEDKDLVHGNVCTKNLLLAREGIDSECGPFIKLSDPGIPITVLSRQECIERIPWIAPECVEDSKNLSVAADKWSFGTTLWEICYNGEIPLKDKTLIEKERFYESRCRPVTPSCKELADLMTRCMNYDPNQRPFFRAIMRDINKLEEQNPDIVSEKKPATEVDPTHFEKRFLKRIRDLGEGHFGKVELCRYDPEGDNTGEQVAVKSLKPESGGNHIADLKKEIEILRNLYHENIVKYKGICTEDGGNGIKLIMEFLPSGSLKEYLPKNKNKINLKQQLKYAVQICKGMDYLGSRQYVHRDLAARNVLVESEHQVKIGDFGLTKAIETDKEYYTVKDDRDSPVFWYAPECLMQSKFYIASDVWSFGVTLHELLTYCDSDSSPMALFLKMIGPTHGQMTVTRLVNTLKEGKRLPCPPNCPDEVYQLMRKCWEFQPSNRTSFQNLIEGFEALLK
UniProt P06239: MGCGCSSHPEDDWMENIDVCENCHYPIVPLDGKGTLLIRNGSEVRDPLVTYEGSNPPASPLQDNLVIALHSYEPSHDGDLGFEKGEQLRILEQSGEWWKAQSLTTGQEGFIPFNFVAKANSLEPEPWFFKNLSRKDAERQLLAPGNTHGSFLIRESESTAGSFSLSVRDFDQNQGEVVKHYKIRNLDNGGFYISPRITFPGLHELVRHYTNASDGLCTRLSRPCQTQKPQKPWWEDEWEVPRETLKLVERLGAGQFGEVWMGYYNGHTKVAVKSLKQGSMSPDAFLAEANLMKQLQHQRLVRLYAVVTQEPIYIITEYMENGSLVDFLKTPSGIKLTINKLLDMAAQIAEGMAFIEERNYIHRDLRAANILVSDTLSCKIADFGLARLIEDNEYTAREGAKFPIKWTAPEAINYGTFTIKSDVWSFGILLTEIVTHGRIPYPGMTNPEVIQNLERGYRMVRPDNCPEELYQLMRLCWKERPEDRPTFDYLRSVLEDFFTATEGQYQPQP
UniProt P53667: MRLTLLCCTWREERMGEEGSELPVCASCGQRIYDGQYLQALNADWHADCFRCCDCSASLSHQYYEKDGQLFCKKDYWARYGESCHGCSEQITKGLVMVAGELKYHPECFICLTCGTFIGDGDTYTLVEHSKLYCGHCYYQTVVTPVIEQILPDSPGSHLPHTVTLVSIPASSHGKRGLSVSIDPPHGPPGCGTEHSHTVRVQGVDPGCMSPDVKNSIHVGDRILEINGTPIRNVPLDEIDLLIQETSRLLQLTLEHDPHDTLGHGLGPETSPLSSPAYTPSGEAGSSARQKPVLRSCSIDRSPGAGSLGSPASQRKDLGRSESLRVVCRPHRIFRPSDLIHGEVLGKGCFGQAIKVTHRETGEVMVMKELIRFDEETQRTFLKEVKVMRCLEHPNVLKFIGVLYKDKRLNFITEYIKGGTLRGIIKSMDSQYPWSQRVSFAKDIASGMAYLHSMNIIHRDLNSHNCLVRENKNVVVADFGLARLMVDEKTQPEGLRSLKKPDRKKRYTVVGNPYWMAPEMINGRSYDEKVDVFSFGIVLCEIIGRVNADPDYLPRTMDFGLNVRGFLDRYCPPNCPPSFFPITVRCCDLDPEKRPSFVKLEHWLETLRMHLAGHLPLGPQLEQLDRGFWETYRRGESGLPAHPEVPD
UniProt P53671: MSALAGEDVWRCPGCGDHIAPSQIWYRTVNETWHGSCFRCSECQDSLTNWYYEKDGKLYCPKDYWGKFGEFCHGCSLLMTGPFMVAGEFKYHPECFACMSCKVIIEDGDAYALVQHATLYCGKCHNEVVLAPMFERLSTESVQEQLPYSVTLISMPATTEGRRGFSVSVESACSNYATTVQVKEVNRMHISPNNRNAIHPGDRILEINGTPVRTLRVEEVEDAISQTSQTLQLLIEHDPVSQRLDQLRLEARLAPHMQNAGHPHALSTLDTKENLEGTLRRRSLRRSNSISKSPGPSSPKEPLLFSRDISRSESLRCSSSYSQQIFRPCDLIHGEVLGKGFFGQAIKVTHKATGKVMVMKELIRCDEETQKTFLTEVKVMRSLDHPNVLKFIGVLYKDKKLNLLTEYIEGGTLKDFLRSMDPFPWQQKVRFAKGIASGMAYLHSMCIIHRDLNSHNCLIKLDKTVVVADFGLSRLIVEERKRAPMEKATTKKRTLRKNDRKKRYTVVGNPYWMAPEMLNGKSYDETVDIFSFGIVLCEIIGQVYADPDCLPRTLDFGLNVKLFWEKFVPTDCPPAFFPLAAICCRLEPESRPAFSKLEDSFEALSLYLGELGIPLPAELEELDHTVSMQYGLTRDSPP
UniProt P07948: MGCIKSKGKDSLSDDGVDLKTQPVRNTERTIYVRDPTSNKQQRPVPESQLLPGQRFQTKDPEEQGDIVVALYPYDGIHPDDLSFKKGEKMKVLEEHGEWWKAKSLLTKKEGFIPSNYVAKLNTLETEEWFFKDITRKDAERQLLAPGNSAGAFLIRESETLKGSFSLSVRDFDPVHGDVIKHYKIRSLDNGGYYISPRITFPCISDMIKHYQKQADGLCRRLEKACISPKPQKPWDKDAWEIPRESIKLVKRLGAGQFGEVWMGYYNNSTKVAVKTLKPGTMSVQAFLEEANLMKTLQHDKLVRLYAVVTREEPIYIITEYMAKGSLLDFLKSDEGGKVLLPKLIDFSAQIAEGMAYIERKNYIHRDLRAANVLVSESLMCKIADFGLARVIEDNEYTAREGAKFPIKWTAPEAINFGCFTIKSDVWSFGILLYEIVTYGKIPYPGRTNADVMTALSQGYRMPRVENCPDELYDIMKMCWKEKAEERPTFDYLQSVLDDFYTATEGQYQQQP
UniProt P49137, whole entry, looked up: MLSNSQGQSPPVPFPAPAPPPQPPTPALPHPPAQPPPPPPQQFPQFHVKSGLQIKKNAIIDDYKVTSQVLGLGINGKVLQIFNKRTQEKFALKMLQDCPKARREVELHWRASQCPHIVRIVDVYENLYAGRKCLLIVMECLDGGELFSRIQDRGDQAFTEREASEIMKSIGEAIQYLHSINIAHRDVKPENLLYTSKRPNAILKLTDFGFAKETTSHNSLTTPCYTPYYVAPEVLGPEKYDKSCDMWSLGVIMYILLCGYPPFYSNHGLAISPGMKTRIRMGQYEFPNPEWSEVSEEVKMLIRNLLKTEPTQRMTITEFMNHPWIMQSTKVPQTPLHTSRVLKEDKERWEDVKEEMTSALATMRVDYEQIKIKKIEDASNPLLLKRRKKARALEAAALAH
UniProt Q16620, whole entry, looked up: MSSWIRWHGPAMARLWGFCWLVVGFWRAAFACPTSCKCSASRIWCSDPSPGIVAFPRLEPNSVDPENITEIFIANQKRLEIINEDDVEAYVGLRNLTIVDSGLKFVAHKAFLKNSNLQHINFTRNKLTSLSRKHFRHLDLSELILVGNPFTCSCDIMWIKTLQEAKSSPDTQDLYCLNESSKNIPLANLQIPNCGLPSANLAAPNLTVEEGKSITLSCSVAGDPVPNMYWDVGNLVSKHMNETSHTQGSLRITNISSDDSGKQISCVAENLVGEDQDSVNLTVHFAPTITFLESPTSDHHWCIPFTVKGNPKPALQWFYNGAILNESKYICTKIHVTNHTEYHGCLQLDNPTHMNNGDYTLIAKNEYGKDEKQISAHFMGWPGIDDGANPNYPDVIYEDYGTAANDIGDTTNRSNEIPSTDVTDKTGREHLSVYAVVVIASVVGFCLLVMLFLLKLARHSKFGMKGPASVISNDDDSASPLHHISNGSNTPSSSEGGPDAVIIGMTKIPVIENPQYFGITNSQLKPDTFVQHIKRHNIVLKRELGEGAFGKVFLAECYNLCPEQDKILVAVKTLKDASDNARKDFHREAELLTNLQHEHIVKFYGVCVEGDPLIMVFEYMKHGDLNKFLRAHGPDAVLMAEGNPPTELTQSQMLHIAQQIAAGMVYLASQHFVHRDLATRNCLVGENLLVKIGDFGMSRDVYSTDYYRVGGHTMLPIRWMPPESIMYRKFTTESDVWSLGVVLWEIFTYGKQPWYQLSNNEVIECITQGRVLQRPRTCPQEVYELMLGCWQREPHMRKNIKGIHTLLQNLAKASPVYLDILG
UniProt Q16288, whole entry, looked up: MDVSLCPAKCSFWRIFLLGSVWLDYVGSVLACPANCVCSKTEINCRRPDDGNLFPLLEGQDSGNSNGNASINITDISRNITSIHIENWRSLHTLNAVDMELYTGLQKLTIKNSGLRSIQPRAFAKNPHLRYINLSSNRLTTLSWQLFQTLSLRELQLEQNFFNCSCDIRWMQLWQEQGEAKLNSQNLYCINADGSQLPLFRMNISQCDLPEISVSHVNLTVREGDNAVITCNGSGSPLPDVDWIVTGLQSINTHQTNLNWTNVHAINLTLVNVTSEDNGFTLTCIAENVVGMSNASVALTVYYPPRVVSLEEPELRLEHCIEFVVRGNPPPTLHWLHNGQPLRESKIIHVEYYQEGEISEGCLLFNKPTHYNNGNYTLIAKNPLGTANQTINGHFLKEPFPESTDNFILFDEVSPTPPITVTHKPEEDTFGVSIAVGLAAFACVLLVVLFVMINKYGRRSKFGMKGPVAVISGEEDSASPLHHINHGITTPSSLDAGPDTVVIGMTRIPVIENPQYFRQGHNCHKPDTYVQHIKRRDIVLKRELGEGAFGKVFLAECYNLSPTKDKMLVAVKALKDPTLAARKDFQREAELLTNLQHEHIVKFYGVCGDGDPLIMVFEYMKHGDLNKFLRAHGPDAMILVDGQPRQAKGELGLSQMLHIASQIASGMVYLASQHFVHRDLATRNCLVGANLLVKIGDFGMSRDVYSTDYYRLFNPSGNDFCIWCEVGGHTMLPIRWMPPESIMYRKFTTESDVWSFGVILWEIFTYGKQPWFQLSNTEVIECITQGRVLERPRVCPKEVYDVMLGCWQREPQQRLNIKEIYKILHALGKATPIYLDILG
UniProt O96013: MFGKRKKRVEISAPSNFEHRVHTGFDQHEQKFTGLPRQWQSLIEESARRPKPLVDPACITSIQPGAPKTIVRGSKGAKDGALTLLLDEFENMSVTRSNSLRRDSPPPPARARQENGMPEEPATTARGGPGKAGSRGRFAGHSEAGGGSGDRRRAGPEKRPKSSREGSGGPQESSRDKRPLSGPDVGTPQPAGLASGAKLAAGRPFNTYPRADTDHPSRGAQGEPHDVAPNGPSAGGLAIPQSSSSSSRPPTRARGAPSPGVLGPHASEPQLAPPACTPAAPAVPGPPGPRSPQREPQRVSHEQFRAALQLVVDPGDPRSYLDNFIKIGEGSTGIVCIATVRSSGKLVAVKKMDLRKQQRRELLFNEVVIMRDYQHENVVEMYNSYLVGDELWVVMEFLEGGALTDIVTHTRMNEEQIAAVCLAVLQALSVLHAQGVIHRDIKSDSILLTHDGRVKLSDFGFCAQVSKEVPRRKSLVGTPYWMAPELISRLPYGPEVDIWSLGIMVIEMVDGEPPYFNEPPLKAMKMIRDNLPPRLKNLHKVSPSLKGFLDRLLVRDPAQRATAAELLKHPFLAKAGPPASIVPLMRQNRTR
UniProt Q15118, whole entry, looked up: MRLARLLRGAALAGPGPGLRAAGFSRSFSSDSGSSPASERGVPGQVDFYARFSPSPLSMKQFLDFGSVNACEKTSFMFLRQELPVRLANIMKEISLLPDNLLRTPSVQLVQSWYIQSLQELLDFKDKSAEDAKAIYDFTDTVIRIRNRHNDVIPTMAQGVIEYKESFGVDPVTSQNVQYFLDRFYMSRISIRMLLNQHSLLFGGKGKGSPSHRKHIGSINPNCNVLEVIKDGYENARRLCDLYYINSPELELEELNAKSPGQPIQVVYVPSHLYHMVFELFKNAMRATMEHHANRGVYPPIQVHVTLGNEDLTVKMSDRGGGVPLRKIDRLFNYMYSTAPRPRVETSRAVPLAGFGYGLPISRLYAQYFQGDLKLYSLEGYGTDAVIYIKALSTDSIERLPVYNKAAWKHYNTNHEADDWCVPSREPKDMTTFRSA

Tests used:
Assay in all cases: kinase-Nluc reporter destabilization hit call (1 = scored as downregulated) (binary); higher = compound decreases kinase abundance
Details in all cases: K562; 2-18 h
IRAK3 = IRAK3 (UniProt Q9Y616)
JAK1 = JAK1 (UniProt P23458)
LCK = LCK (UniProt P06239)
LIMK1 = LIMK1 (UniProt P53667)
LIMK2 = LIMK2 (UniProt P53671)
LMTK2 = LMTK2 (UniProt Q8IWU2)
LYN = LYN (UniProt P07948)
MAP2K1 = MAP2K1 (UniProt Q02750)
MAP2K2 = MAP2K2 (UniProt P36507)
MAP4K2 = MAP4K2 (UniProt Q12851)
MAPK1 = MAPK1 (UniProt P28482)
MAPK4 = MAPK4 (UniProt P31152)
MAPKAPK2 = MAPKAPK2 (UniProt P49137)
MKNK1 = MKNK1 (UniProt Q9BUB5)
NTRK2 = NTRK2 (UniProt Q16620)
NTRK3 = NTRK3 (UniProt Q16288)
PAK4 = PAK4 (UniProt O96013)
PBK = PBK (UniProt Q96KB5)
PDGFRB = PDGFRB (UniProt P09619)
PDK1 = PDK1 (UniProt Q15118)

Measured: kinase-Nluc reporter destabilization hit call

O=C1N[C@@H](Cc2c[nH]c3ccccc23)C(=O)N2CCC[C@@H]12 [Brevianamide F] (10 µM)
inactive: IRAK3 = 0 | JAK1 = 0 | LCK 0 | LIMK1 = 0 | LIMK2 = 0 | LMTK2 = 0 | LYN 0 | MAP2K1 = 0 | MAP2K2 = 0 | MAP4K2 = 0 | MAPK1 = 0 | MAPK4 = 0 | MAPKAPK2 = 0 | MKNK1 = 0 | NTRK2 = 0 | NTRK3 = 0 | PAK4 = 0 | PBK 0 | PDGFRB 0 | PDK1 = 0

C[C@@H](c1ccc(-c2ccccc2)c(F)c1)c1cc(NC(=N)N2CCOCC2)on1 [Rimacalib] (10 µM)
inactive: IRAK3 = 0 | JAK1 = 0 | LCK 0 | LIMK1 = 0 | LIMK2 = 0 | LMTK2 = 0 | LYN 0 | MAP2K1 = 0 | MAP2K2 = 0 | MAP4K2 = 0 | MAPK1 = 0 | MAPK4 = 0 | MAPKAPK2 = 0 | MKNK1 = 0 | NTRK2 = 0 | NTRK3 = 0 | PAK4 = 0 | PBK 0 | PDGFRB 0 | PDK1 = 0

Cn1cc(-c2ccc3c(c2)CCN3C(=O)Cc2cccc(C(F)(F)F)c2)c2c(N)ncnc21 (2.5 µM)
inactive: IRAK3 = 0 | JAK1 = 0 | LCK 0 | LIMK1 = 0 | LIMK2 = 0 | LMTK2 = 0 | LYN 0 | MAP2K1 = 0 | MAP2K2 = 0 | MAP4K2 = 0 | MAPK1 = 0 | MAPK4 = 0 | MAPKAPK2 = 0 | MKNK1 = 0 | NTRK2 = 0 | NTRK3 = 0 | PAK4 = 0 | PBK 0 | PDGFRB 0 | PDK1 = 0

C[C@]1(O)CCN(c2nc(N3C[C@H](O)[C@@H](O)C3)cc(C(F)(F)F)c2C#N)C1 (10 µM)
inactive: IRAK3 = 0 | JAK1 = 0 | LCK 0 | LIMK1 = 0 | LIMK2 = 0 | LMTK2 = 0 | LYN 0 | MAP2K1 = 0 | MAP2K2 = 0 | MAP4K2 = 0 | MAPK1 = 0 | MAPK4 = 0 | MAPKAPK2 = 0 | MKNK1 = 0 | NTRK2 = 0 | NTRK3 = 0 | PAK4 = 0 | PBK 0 | PDGFRB 0 | PDK1 = 0

FC(F)(c1ccc2ncccc2c1)c1nnc2ccc(-c3ccncc3)nn12 (10 µM)
inactive: IRAK3 = 0 | JAK1 = 0 | LCK 0 | LIMK1 = 0 | LIMK2 = 0 | LMTK2 = 0 | LYN 0 | MAP2K1 = 0 | MAP2K2 = 0 | MAP4K2 = 0 | MAPK1 = 0 | MAPK4 = 0 | MAPKAPK2 = 0 | MKNK1 = 0 | NTRK2 = 0 | NTRK3 = 0 | PAK4 = 0 | PBK 0 | PDGFRB 0 | PDK1 = 0

O=C(N/N=C/c1coc2ccccc2c1=O)c1cccnc1 (10 µM)
inactive: IRAK3 = 0 | JAK1 = 0 | LCK 0 | LIMK1 = 0 | LIMK2 = 0 | LMTK2 = 0 | LYN 0 | MAP2K1 = 0 | MAP2K2 = 0 | MAP4K2 = 0 | MAPK1 = 0 | MAPK4 = 0 | MAPKAPK2 = 0 | MKNK1 = 0 | NTRK2 = 0 | NTRK3 = 0 | PAK4 = 0 | PBK 0 | PDGFRB 0 | PDK1 = 0

Cn1nccc1Nc1nccc(-c2ccn([C@H](CO)c3ccc(Cl)c(F)c3)c(=O)c2)n1 [Ravoxertinib] (10 µM)
inactive: IRAK3 = 0 | JAK1 = 0 | LCK 0 | LIMK1 = 0 | LIMK2 = 0 | LMTK2 = 0 | LYN 0 | MAP2K1 = 0 | MAP2K2 = 0 | MAP4K2 = 0 | MAPK1 = 0 | MAPK4 = 0 | MAPKAPK2 = 0 | MKNK1 = 0 | NTRK2 = 0 | NTRK3 = 0 | PAK4 = 0 | PBK 0 | PDGFRB 0 | PDK1 = 0

NS(=O)(=O)c1ccc(-n2nc(C(F)(F)F)cc2-c2ccc(Cl)cc2)cc1 (10 µM)
inactive: IRAK3 = 0 | JAK1 = 0 | LCK 0 | LIMK1 = 0 | LIMK2 = 0 | LMTK2 = 0 | LYN 0 | MAP2K1 = 0 | MAP2K2 = 0 | MAP4K2 = 0 | MAPK1 = 0 | MAPK4 = 0 | MAPKAPK2 = 0 | MKNK1 = 0 | NTRK2 = 0 | NTRK3 = 0 | PAK4 = 0 | PBK 0 | PDGFRB 0 | PDK1 = 0

COc1ccc(-c2ccc3c(N4CCOCC4)nc(N4C[C@@H](C)O[C@@H](C)C4)nc3n2)cc1CO (2.5 µM)
inactive: IRAK3 = 0 | JAK1 = 0 | LCK 0 | LIMK1 = 0 | LIMK2 = 0 | LMTK2 = 0 | LYN 0 | MAP2K1 = 0 | MAP2K2 = 0 | MAP4K2 = 0 | MAPK1 = 0 | MAPK4 = 0 | MAPKAPK2 = 0 | MKNK1 = 0 | NTRK2 = 0 | NTRK3 = 0 | PAK4 = 0 | PBK 0 | PDGFRB 0 | PDK1 = 0

COc1cc(Nc2ncc(F)c(Nc3ccc4c(n3)N(COP(=O)(O)O)C(=O)C(C)(C)O4)n2)cc(OC)c1OC [Fostamatinib (disodium hexahydrate)] (10 µM)
inactive: IRAK3 = 0 | JAK1 = 0 | LCK 0 | LIMK1 = 0 | LIMK2 = 0 | LMTK2 = 0 | LYN 0 | MAP2K1 = 0 | MAP2K2 = 0 | MAP4K2 = 0 | MAPK1 = 0 | MAPK4 = 0 | MAPKAPK2 = 0 | MKNK1 = 0 | NTRK2 = 0 | NTRK3 = 0 | PAK4 = 0 | PBK 0 | PDGFRB 0 | PDK1 = 0

FC(F)(F)c1ccc(CNc2ccc(Cc3c[nH]c4ncccc34)cn2)cc1 (10 µM)
inactive: IRAK3 = 0 | JAK1 = 0 | LCK 0 | LIMK1 = 0 | LIMK2 = 0 | LMTK2 = 0 | LYN 0 | MAP2K1 = 0 | MAP2K2 = 0 | MAP4K2 = 0 | MAPK1 = 0 | MAPK4 = 0 | MAPKAPK2 = 0 | MKNK1 = 0 | NTRK2 = 0 | NTRK3 = 0 | PAK4 = 0 | PBK 0 | PDGFRB 0 | PDK1 = 0

Sorted by molecular weight (high to low): 3 of the compounds above
Cn1nccc1Nc1nccc(-c2ccn([C@H](CO)c3ccc(Cl)c(F)c3)c(=O)c2)n1 [Ravoxertinib] (10 µM)
inactive: IRAK3 = 0 | JAK1 = 0 | LCK 0 | LIMK1 = 0 | LIMK2 = 0 | LMTK2 = 0 | LYN 0 | MAP2K1 = 0 | MAP2K2 = 0 | MAP4K2 = 0 | MAPK1 = 0 | MAPK4 = 0 | MAPKAPK2 = 0 | MKNK1 = 0 | NTRK2 = 0 | NTRK3 = 0 | PAK4 = 0 | PBK 0 | PDGFRB 0 | PDK1 = 0

NS(=O)(=O)c1ccc(-n2nc(C(F)(F)F)cc2-c2ccc(Cl)cc2)cc1 (10 µM)
inactive: IRAK3 = 0 | JAK1 = 0 | LCK 0 | LIMK1 = 0 | LIMK2 = 0 | LMTK2 = 0 | LYN 0 | MAP2K1 = 0 | MAP2K2 = 0 | MAP4K2 = 0 | MAPK1 = 0 | MAPK4 = 0 | MAPKAPK2 = 0 | MKNK1 = 0 | NTRK2 = 0 | NTRK3 = 0 | PAK4 = 0 | PBK 0 | PDGFRB 0 | PDK1 = 0

FC(F)(F)c1ccc(CNc2ccc(Cc3c[nH]c4ncccc34)cn2)cc1 (10 µM)
inactive: IRAK3 = 0 | JAK1 = 0 | LCK 0 | LIMK1 = 0 | LIMK2 = 0 | LMTK2 = 0 | LYN 0 | MAP2K1 = 0 | MAP2K2 = 0 | MAP4K2 = 0 | MAPK1 = 0 | MAPK4 = 0 | MAPKAPK2 = 0 | MKNK1 = 0 | NTRK2 = 0 | NTRK3 = 0 | PAK4 = 0 | PBK 0 | PDGFRB 0 | PDK1 = 0

More compounds

O=C(O)CCC(=O)Nc1ccc(Br)cn1 [Bikinin] (10 µM)
inactive: IRAK3 = 0 | JAK1 = 0 | LCK 0 | LIMK1 = 0 | LIMK2 = 0 | LMTK2 = 0 | LYN 0 | MAP2K1 = 0 | MAP2K2 = 0 | MAP4K2 = 0 | MAPK1 = 0 | MAPK4 = 0 | MAPKAPK2 = 0 | MKNK1 = 0 | NTRK2 = 0 | NTRK3 = 0 | PAK4 = 0 | PBK 0 | PDGFRB 0 | PDK1 = 0

O=c1cc(CN2CCOCC2)occ1OCCCCCSc1ccnc2cc(C(F)(F)F)ccc12 (10 µM)
inactive: IRAK3 = 0 | JAK1 = 0 | LCK 0 | LIMK1 = 0 | LIMK2 = 0 | LMTK2 = 0 | LYN 0 | MAP2K1 = 0 | MAP2K2 = 0 | MAP4K2 = 0 | MAPK1 = 0 | MAPK4 = 0 | MAPKAPK2 = 0 | MKNK1 = 0 | NTRK2 = 0 | NTRK3 = 0 | PAK4 = 0 | PBK 0 | PDGFRB 0 | PDK1 = 0

COc1ccc(OC)c(C2C(C#N)=C(N)Oc3n[nH]c(-c4ccc5ccccc5c4)c32)c1 (stereo not given) (10 µM)
inactive: IRAK3 = 0 | JAK1 = 0 | LCK 0 | LIMK1 = 0 | LIMK2 = 0 | LMTK2 = 0 | LYN 0 | MAP2K1 = 0 | MAP2K2 = 0 | MAP4K2 = 0 | MAPK1 = 0 | MAPK4 = 0 | MAPKAPK2 = 0 | MKNK1 = 0 | NTRK2 = 0 | NTRK3 = 0 | PAK4 = 0 | PBK 0 | PDGFRB 0 | PDK1 = 0

C[C@@H](c1ccc(F)cc1)n1nnc2cnc3ccc(-c4ccc5ocnc5c4)cc3c21 (10 µM)
inactive: IRAK3 = 0 | JAK1 = 0 | LCK 0 | LIMK1 = 0 | LIMK2 = 0 | LMTK2 = 0 | LYN 0 | MAP2K1 = 0 | MAP2K2 = 0 | MAP4K2 = 0 | MAPK1 = 0 | MAPK4 = 0 | MAPKAPK2 = 0 | MKNK1 = 0 | NTRK2 = 0 | NTRK3 = 0 | PAK4 = 0 | PBK 0 | PDGFRB 0 | PDK1 = 0

CCOC(=O)N1CCN(C(=O)[C@H](Cc2cccc(C(=N)N)c2)NS(=O)(=O)c2c(C(C)C)cc(C(C)C)cc2C(C)C)CC1 (10 µM)
inactive: IRAK3 = 0 | JAK1 = 0 | LCK 0 | LIMK1 = 0 | LIMK2 = 0 | LMTK2 = 0 | LYN 0 | MAP2K1 = 0 | MAP2K2 = 0 | MAP4K2 = 0 | MAPK1 = 0 | MAPK4 = 0 | MAPKAPK2 = 0 | MKNK1 = 0 | NTRK2 = 0 | NTRK3 = 0 | PAK4 = 0 | PBK 0 | PDGFRB 0 | PDK1 = 0

COc1cc2ncc(-c3ccccc3)nc2cc1OC [Tyrphostin AG1296] (10 µM)
inactive: IRAK3 = 0 | JAK1 = 0 | LCK 0 | LIMK1 = 0 | LIMK2 = 0 | LMTK2 = 0 | LYN 0 | MAP2K1 = 0 | MAP2K2 = 0 | MAP4K2 = 0 | MAPK1 = 0 | MAPK4 = 0 | MAPKAPK2 = 0 | MKNK1 = 0 | NTRK2 = 0 | NTRK3 = 0 | PAK4 = 0 | PBK 0 | PDGFRB 0 | PDK1 = 0

CCNc1nc(Nc2cc(F)c(C(=O)N3CCOCC3)cc2OC)ncc1C(F)(F)F [GNE-7915 (tosylate)] (10 µM)
inactive: IRAK3 = 0 | JAK1 = 0 | LCK 0 | LIMK1 = 0 | LIMK2 = 0 | LMTK2 = 0 | LYN 0 | MAP2K1 = 0 | MAP2K2 = 0 | MAP4K2 = 0 | MAPK1 = 0 | MAPK4 = 0 | MAPKAPK2 = 0 | MKNK1 = 0 | NTRK2 = 0 | NTRK3 = 0 | PAK4 = 0 | PBK 0 | PDGFRB 0 | PDK1 = 0
